According to PubChem BioAssay AID1347426 (Functional Genomics Laboratory (NCATS/FGL), 2020):
Out of some 31,000 sequences screened, about 1,400 (4.5%) were called active.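 How the source made its calls: active means median seed-adjusted z-score above 1 or below -1; inactive means the rest.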 The list shows a part of the results.

Assay: Novel Modifiers of Survival Motor Neuron (SMN) Protein: Gene Identification via Genome-wide siRNA Screen;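 further: luminescence tracks full-length SMN protein made from the SMN2 reporter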
Conditions: HEK293T SMN2-luciferase reporter, siRNA knockdown, 72 h; actives lie on both sides
How it was run: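 Luciferase signal, proportional to full-length SMN made from an SMN2 cDNA reporter in stable HEK293T cells, was read 72 h after siRNA reverse transfection. Values were expressed as MAD scores after non-targeting-control normalization and log10 conversion; seed analysis flagged off-targets.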

| Sequence | median seed-adjusted z-score |
| --- | --- |
| GGCAAGACCUGCAACCAGATT against NTN3 | inactive: 0.298 |
| GACUUUGAAGGAUCCUAUUTT against VPS13B | inactive: 0 |
| CUUCGGUAGUUAUGUGACATT against DYNLL1 | inactive: 0 |
| GGAGCAUCCAUCUGAGAAATT against TRPV5 | inactive: 0.0879 |
| GGACUAGGCCCUACACACATT against PITX3 | inactive: 0 |
| GGAUGAUUAUGCUAAUCUATT against GGPS1 | inactive: -0.372 |
| GGGAAGGUGUUACAGGCUATT against FAM62A | inactive: -0.34 |
| CCAUGAACUCGAUCACAGATT against TLE3 | inactive: -0.451 |
| GGCUAUGGGAAGUACAAGATT against PDE1B | inactive: -0.384 |
| CGUCAUCUUUGCGAAGAUUTT against EHD2 | inactive: 0.0989 |
| AUAUGUUCCAGGACCCUAATT against TUBB4Q | inactive: -0.0288 |
| CCAUGAACUUUGGUGUUCATT against ELOVL3 | inactive: 0 |
| CUUCAAGAAUAAGUACGAATT against KRT7 | inactive: 0 |
| GACAGUCACUGAGCAUAGATT against PKD1L2 | active: -1.17 |
| CCAGUUCCGAAUCAUCAGATT against PRICKLE3 | inactive: 0.0332 |
| CGUCAUCAGACUCAAUGAATT against 12-Sep | inactive: 0.286 |
| GGAGCUUCGAGAUAUCUUATT against POU4F1 | inactive: -0.138 |
| CACGAACUGUUAGCACCUATT against TBC1D5 | inactive: 0.38 |
| GCUUGUACCUCAUAUCAGATT against INCENP | inactive: -0.339 |
| GCAGGAACAGAAUGCCGUATT against MBD4 | inactive: -0.107 |
| ACAGGGCAGUGCUACUGUATT against LAMA5 | inactive: 0.229 |
| GUUCAGACCUUUAUAGACATT against ZNF449 | inactive: 0.178 |

| Sequence | median seed-adjusted z-score |
| --- | --- |
| CCAACAAUAAGAACGAGAATT against POLR1A | inactive: 0.0814 |
| GAAAGAUUCAUGAGAUAUUTT against PRDM5 | inactive: -0.463 |
| GAUGUUGUUUUGUCGGCUATT against HEATR1 | inactive: -0.115 |
| GGGAUAAUCAUGCACAGCATT against ADCYAP1 | inactive: 0.229 |
| CACUAAUAUGUGAACUUAUTT against RAGE | inactive: -0.154 |
| ACAACCUUCCUGUACUUCATT against GPR175 | inactive: 0.245 |
| GGAGAAAGGUGAUCCCUGATT against MFSD5 | inactive: 0.205 |
| CAGCAGAUCCUUUCACGAATT against FRMD4B | inactive: -0.567 |
| CAGAGAUCGUAUUGAUAUUTT against SNAP23 | inactive: 0.31 |
| CGACUAAACAUAUCUGGAATT against GPR124 | inactive: 0.00658 |
| GCAAAGGCACUAAGAAGUUTT against GJA8 | inactive: 0 |
| GGUUGUUGGUUGGACUGUUTT against GDE1 | inactive: -0.256 |
| CCUCAACCGUGGACAAUAUTT against MLH1 | inactive: -0.215 |
| CCUUGAAGAGAGAACGGAATT against MYH14 | inactive: -0.307 |
| CUCUCUCUCUACGAACAUUTT against TCF7 | inactive: -0.338 |
| AGAGGUCUUCGACAAUAAATT against CD9 | active: -1.02 |
| UCGAUGUACUGGAGACGGATT against NUCB1 | inactive: 0.232 |
| CACAUUGUCUUACACUGAATT against SMAD6 | inactive: -0.167 |
| GUCUUUUGCUGCACGAGAATT against RTN4RL1 | inactive: -0.537 |
| CCAUCACCAUCUUGCAUGATT against KCNJ12 | inactive: -0.641 |
| AGUUCGAGGAAGACCUAAATT against DUSP10 | inactive: 0.28 |
| GUGAAGAUCUUGCCCGUCATT against SLC15A3 | inactive: 0 |

Already shown: an excerpt of the list.

| Sequence | median seed-adjusted z-score |
| --- | --- |
| CACAUUGUCUUACACUGAATT against SMAD6 | inactive: -0.167 |
| GUCUUUUGCUGCACGAGAATT against RTN4RL1 | inactive: -0.537 |
| CCAUCACCAUCUUGCAUGATT against KCNJ12 | inactive: -0.641 |
| AGUUCGAGGAAGACCUAAATT against DUSP10 | inactive: 0.28 |

(further entries)

| Sequence | median seed-adjusted z-score |
| --- | --- |
| CUUACGUGGUGACACGGUATT against MAPK9 | inactive: 0.211 |
| GUAUCAGCUUAUGAACUUATT against SLC5A11 | inactive: -0.219 |
| GAACACCUGCGAGCACAUUTT against UNC119 | inactive: 0.171 |
| CAAGCGAAGGAGAAACUCATT against MED4 | inactive: -0.632 |
| GGGAAUUGCCUGAACCUUUTT against ARHGAP17 | inactive: -0.336 |
| AACCUUUGAUUUUACAUCATT against KRT6C | inactive: -0.275 |
| CUCUCCUCAUGGUCUAUUUTT against DPAGT1 | inactive: -0.144 |
| GCUCCUUCCAGACGAUGAATT against RCVRN | inactive: 0.562 |
| CAACCGUGUUUUUCAUUCUTT against SERPINA4 | inactive: 0.419 |
| CCAUGCUCCAGUUAUCUUUTT against SLC10A6 | inactive: -0.803 |
| GCGGCUAACAGGAUAUGUATT against ACTN2 | inactive: 0.165 |
| GGGAGAACCUUCACACGUATT against ZNF354C | inactive: 0.648 |
| AUAUCAACUUGACCCACCATT against B3GNT7 | active: -1.05 |
| AGACCCACAUGAUUGUACATT against ZNF710 | inactive: 0 |
| GAACUAACAAGUUCCGGAATT against ZC3H3 | inactive: -0.622 |
| GAUACAAUUUCAACACCUATT against GRIP1 | inactive: 0.337 |
| CGAAGGAAAUCAAGGGAAATT against TEAD2 | inactive: 0.96 |
| GUCCUACAUUAGUGCCUUATT against PSMB8 | inactive: 0 |
| UGAUUAGAACUGUCAAACATT against TRIM17 | inactive: 0.574 |
| CAUGAGUUGUGACAAAUCATT against BCL2L11 | inactive: -0.0521 |
| GCACAGAAUCAGAUAACAATT against CTSL1 | inactive: 0.378 |
| CGAACACCGGUGAGGUAUATT against SNRPD3 | active: -2.69 |

| Sequence | median seed-adjusted z-score |
| --- | --- |
| GGAGUUAUCUGGUGACAAUTT against UROS | inactive: -0.248 |
| UAAUAGAAUGUCUCCAAAGTT against HMGN2 | inactive: -0.038 |
| GAAAUUAUACCAAGGUGAATT against ZNF675 | inactive: -0.343 |
| GGAAAAAUCUCUCAUCGAATT against NAGA | inactive: -0.247 |
| GGUGCAAGCUGUGAGAGUATT against KCTD18 | inactive: -0.0473 |
| CCAUGUACAGAGACAUUCATT against ZNF782 | inactive: 0.117 |
| CCAUUUAGCAGACAAAUAUTT against ZNF761 | inactive: 0.291 |
| CCAUCUCGGAAGAUCUAAATT against MTSS1 | inactive: 0.175 |
| GGUGCUGUCUAGGCAAGAATT against JAK1 | inactive: 0.0199 |
| GGACAAUACGGGUAAUUGATT against DYNC1I1 | inactive: -0.716 |
| ACCCUGCUAUACUCCCUAUTT against MAPKAPK3 | inactive: -0.506 |
| UCAUCUUGAUCUUCUCUCUTT against SLC35C2 | inactive: -0.483 |
| CAGAAGGUAUGUUAAGCUATT against CRYL1 | inactive: 0.0852 |
| UCCGCACUGUGAAAGACUATT against CABP1 | inactive: -0.192 |
| GGGUCCUAGUGACUGAGAATT against GOLGA2 | inactive: 0.18 |
| AGACAAUUGUCACCAGGAUTT against LEP | inactive: -0.143 |
| CCUUCAACCUGGACUACUATT against GPN2 | inactive: 0 |
| GGUUCUUGUUUUAUCCCUATT against GCNT1 | inactive: 0.463 |
| CCGAAUUGCUGAUCAUCCATT against SNX7 | inactive: 0.146 |
| AGGACUCCAUUGUGACAGATT against SLC22A8 | inactive: 0.175 |
| GCCCAAGGCCAAUUUUGAUTT against C8G | inactive: -0.622 |
| CGACAGCGCGGAGUAUCUATT against CACNG8 | inactive: 0.214 |

Reprinted at random: three records from the list.

| Sequence | median seed-adjusted z-score |
| --- | --- |
| GGUUCUUGUUUUAUCCCUATT against GCNT1 | inactive: 0.463 |
| CAGAAGGUAUGUUAAGCUATT against CRYL1 | inactive: 0.0852 |
| CCAUCUCGGAAGAUCUAAATT against MTSS1 | inactive: 0.175 |

Remaining list, next part.

| Sequence | median seed-adjusted z-score |
| --- | --- |
| CUCUAAACCUUUGCCCUAUTT against AMZ2 | inactive: 0.26 |
| GCGAUGUACUCAAAGCUGUTT against MFI2 | inactive: 0.365 |
| AAGUAUUCUGAAUCCGUGATT against TPM2 | inactive: 0.305 |
| ACAUCUAUGUGCCCAUGGATT against NLGN4Y | inactive: 0.317 |
| GCAGUAGCUACAGUACAUATT against USP3 | inactive: -0.176 |
| GCACAAGUGAUAAGAUGCATT against PTK7 | inactive: 0.548 |
| CUCCUAAAGUGCAUCGCAATT against GUF1 | inactive: 0.119 |
| GGAUCAUAAAUGAAAGGGATT against FOXD4L4 | inactive: -0.0372 |
| GAAUGGGUCUUGUAAAUCATT against PPAT | active: -1.51 |
| CGCUGACCCUGGAGAUGUATT against CALY | inactive: 0.216 |
| GGACAUCAAUAUCGACGAUTT against AK7 | inactive: -0.702 |
| AGGUGUAUUCCGAACUUAATT against APOBEC3G | inactive: 0.00539 |
| GGUAGAUAAUUUAGACUUATT against ZNF182 | inactive: 0 |
| CAUUUCGACUGGAUCAUAUTT against CLK1 | inactive: -0.436 |
| GGCUCCAGAGACUACUAUATT against CIRBP | inactive: -0.701 |
| GUAUCAAGGUUACAUUGGUTT against PSMB7 | inactive: 0.131 |
| GGGAAAUUCUAGUUAAUCATT against SEC24D | inactive: 0.529 |
| GAGCUUCGAUCAAAAUUGATT against HNRPK | inactive: 0.296 |
| GAGCUGAAGUUAACCCUGUTT against RLN2 | inactive: 0.877 |
| CCCUAAAUGUAUCUCGGAATT against GRIN3A | inactive: 0.241 |
